The values that follow come from article PMC4294327.

These are yes or no findings as the source states them, for the method shown. Binding seen in cells or lysates may run through a third protein. Some entries that bind do so weakly or less than the wild type.

Test [1] deals with Cyclin B1 (human (endogenous in K562)) (UniProt P14635). In words: condition: only in the nuclear fraction of G2/M cells; co-IP; nuclear fraction of K562 cells synchronized at G2/M; Cyclin B1 immunoprecipitated, PKC⍺ detected by Western blotting. On the technique in general: In western blotting, separated proteins are transferred to a membrane and probed.
Test [2] has the same target. As to the kind of experiment: co-IP; endogenous proteins from total K562 lysates (mPER lysis buffer, 500 μg protein, antibody overnight at 4°C, Protein A/G PLUS-Agarose); cells synchronized at G2/M with Nocodazole, also G1/S cycling cells; non-specific IgG as negative control.
The target is the same in test [3]. As to the kind of experiment: co-IP; cytoplasmic fraction of K562 cells synchronized at G2/M; Cyclin B1 immunoprecipitated, PKC⍺ detected by Western blotting.

For “Protein Kinase C ⍺ (PKC⍺) (from UniProt P17252 1-672) (enzyme)”, the binding entry in test [1] is “no binding”; in test [2] it was “binds”; in test [3], “binds”.
